Source: the supplement of paper PMC10011410
These are raw signals, not scaled to a control.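 Values average three technical replicates, each on its own plate. On all plates, reagent-free control wells corrected for intrinsic cell fluorescence and DMSO-treated wells acted as vehicle controls. No hit or active cutoff is set for these live-cell readings.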

Tested on: U-2 OS
Assay: AUC of Cytotox red (membrane-compromised) object count (AUC (object count x time)); higher = more apoptotic or dead cells
Conditions: 20 µM
Method: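 Live-cell Incucyte imaging of U-2 OS cells with Caspase-3/7 Green and Cytotox Red reagents. Compounds were tested mostly at 5, 10 and 20 uM, and cells were imaged every 4 h for up to 60 h. Value is the area under the curve of positive object counts over time, per channel: green = caspase 3/7, red = membrane-compromised, overlap = both.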

Structure (SMILES): COC(=O)[C@]1(C)CC[C@]2(C)CC[C@]3(C)C4=CC=C5C(=CC(=O)C(O)=C5C)[C@]4(C)CC[C@@]3(C)[C@@H]2C1
- AUC of Cytotox red: 862
